Data: PMC4914246
These are yes or no findings as the source states them, for the method shown. Binding seen in cells or lysates may run through a third protein. Some results given as binding are weak or reduced against the parent protein; the word gives no strength.

By UniProt entry, the sequences of proteins in these tests, tags left out. Residues count along the entry.
UniProt Q9UPY5: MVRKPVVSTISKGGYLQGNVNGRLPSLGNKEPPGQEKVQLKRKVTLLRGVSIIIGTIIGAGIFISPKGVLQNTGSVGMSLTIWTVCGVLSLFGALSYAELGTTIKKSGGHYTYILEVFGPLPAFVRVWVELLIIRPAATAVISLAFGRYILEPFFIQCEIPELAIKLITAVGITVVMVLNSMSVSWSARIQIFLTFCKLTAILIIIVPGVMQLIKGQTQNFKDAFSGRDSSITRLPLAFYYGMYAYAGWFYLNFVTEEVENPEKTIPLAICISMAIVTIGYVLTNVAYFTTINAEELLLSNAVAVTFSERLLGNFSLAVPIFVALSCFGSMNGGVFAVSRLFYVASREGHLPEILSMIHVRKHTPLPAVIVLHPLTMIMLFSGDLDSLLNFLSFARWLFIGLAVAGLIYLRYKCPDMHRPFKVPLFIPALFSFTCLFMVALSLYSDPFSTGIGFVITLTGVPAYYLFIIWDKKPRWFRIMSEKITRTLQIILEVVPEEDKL
UniProt P15941, residues 1098-1255: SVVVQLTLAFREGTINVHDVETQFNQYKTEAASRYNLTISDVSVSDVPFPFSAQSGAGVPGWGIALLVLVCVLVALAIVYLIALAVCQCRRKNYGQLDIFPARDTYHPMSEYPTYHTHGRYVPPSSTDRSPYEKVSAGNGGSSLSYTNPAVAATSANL

Target: xCT light chain of the cystine/glutamate transporter (system XC-) (human (endogenous in MDA-MB-468, BT-20 and 293T)) (UniProt Q9UPY5)
Assay: co-IP; lysates of MDA-MB-468 or BT-20 cells precipitated with anti-MUC1-C, anti-xCT or a control IgG; precipitates immunoblotted (anti-MUC1-C, anti-xCT, anti-CD44)

binding: binds
Substance: MUC1 C-terminal subunit (MUC1-C) (from UniProt P15941 1098-1255)
